From the supplement of paper PMC10849652
This is one part of the list.

By UniProt entry, the sequences of proteins in these tests, tags left out. Where a name states a change or a piece, a line headed by the entry shows the natural chain unless it says otherwise.
UniProt Q96Q45: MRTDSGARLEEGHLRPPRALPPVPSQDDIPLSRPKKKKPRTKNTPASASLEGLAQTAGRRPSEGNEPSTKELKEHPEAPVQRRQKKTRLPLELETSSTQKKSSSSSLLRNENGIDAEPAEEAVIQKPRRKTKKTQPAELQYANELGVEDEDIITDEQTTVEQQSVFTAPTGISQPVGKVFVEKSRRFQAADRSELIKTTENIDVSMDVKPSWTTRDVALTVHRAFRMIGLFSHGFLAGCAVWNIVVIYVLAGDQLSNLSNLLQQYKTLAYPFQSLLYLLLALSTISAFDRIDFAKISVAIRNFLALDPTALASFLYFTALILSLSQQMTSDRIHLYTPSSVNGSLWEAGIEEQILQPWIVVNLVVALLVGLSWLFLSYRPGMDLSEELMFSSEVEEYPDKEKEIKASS
UniProt Q9Y2Y6: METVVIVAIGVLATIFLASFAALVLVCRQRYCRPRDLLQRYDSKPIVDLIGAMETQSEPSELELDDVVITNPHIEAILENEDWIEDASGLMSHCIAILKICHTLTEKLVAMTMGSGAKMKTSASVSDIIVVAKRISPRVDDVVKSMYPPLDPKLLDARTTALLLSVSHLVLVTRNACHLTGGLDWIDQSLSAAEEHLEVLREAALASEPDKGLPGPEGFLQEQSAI
UniProt Q9NWD8: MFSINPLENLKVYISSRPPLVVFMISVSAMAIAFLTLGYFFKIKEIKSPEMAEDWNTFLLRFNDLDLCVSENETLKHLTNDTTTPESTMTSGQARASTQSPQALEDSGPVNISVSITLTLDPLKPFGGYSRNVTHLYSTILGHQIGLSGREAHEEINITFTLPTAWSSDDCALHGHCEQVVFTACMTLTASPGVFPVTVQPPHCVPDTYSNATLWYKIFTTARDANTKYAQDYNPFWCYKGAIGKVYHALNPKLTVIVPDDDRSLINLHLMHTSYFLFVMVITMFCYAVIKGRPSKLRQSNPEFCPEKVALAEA
UniProt Q9BRR3: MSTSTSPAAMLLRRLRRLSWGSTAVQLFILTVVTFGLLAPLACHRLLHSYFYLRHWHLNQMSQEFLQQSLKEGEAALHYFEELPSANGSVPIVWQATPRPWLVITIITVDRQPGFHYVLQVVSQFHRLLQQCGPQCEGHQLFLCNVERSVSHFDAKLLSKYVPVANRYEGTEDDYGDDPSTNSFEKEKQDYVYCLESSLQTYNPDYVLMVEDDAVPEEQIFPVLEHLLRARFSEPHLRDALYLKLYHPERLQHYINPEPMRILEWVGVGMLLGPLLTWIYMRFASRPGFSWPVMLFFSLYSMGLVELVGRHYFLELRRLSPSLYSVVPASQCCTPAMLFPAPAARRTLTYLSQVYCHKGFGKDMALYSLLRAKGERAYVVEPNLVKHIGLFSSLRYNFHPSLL
UniProt O43399: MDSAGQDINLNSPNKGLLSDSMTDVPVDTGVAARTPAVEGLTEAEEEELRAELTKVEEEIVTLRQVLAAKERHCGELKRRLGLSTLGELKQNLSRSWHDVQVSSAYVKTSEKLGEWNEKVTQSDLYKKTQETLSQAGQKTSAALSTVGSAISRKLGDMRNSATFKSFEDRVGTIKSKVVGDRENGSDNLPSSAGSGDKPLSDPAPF
UniProt Q5T4D3: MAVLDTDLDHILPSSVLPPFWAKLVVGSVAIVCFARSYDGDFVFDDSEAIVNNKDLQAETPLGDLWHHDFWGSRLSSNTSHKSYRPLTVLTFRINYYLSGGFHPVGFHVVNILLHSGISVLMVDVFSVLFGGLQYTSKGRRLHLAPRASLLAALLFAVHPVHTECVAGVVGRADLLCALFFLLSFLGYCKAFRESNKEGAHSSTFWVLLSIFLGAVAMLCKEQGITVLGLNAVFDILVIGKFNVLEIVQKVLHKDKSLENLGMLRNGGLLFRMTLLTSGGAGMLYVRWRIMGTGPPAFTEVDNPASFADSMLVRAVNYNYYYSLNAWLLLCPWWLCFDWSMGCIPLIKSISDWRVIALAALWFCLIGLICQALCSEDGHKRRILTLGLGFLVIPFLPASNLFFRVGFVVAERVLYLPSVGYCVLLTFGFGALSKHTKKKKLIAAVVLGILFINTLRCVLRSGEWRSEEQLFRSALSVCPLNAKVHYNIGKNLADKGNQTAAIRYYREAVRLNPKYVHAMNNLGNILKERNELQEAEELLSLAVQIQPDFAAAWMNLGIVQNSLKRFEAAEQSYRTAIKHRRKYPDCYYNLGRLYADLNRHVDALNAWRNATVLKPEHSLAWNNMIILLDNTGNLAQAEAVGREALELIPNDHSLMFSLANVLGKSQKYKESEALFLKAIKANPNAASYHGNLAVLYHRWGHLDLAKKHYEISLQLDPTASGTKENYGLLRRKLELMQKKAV
UniProt P41273, whole entry, looked up: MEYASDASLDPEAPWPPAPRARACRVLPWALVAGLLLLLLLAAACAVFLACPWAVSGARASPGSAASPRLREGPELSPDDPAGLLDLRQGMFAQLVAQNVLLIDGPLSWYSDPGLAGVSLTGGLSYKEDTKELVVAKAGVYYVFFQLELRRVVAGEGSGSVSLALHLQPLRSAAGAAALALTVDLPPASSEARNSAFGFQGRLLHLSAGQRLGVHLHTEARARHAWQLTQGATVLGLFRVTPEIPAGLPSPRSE
UniProt P06753, whole entry, looked up: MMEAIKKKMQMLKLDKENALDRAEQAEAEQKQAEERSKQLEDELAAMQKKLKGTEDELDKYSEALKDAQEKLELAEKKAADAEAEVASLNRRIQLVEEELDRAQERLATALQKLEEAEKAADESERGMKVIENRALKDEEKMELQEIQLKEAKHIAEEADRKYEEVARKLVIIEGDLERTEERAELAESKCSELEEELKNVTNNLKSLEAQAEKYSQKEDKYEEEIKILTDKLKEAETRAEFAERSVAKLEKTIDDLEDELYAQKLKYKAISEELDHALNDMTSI
UniProt P42167: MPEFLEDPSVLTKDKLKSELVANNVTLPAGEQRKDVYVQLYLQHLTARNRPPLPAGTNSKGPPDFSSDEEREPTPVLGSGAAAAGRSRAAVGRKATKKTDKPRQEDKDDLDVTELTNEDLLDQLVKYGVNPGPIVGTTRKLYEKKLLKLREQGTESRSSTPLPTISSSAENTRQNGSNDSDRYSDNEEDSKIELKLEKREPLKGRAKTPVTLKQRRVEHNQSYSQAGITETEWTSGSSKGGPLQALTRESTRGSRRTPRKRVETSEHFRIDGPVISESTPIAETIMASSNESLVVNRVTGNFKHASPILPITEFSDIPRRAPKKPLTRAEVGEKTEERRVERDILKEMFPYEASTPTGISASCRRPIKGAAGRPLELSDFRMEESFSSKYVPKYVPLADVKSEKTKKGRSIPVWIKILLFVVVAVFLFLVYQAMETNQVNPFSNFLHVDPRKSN
UniProt Q9BSE2: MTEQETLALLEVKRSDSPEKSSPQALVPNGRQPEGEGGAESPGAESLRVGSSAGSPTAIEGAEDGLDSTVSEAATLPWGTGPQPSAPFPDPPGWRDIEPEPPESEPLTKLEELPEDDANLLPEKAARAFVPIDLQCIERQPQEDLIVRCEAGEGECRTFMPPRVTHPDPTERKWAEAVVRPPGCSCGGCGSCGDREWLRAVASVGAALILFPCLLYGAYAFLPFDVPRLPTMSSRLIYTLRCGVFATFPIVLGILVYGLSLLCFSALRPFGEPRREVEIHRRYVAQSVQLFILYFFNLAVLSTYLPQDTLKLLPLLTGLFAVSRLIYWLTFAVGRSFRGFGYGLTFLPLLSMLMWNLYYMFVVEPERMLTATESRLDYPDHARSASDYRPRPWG
UniProt Q96B49: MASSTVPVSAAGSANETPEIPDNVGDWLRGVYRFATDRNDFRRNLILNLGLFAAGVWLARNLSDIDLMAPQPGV

Columns and labels:
Assay in all cases: log2 fold change, soluble protein after heating vs DMSO (PISA); higher = thermal stabilisation; K562 lysate, 10 uM; active = over 0.2 and 3.5 SD of the protein, either way, in both replicates (recomputed)
lapatinib = compound: CS(=O)(=O)CCNCc1ccc(-c2ccc3ncnc(Nc4ccc(OCc5cccc(F)c5)c(Cl)c4)c3c2)o1 [lapatinib]
Summary of the method: (§1)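 A 30 min treatment with 10 μM compound was applied to crude K562 extract at 1 mg/mL protein in PBS pH 7.4 with 1 mM MgCl2. Heating for 3 min spanned 48°C-58°C, after which aliquots were pooled, adjusted to 0.5% NP-40 at 4°C and spun at 21,000xg for 90 min. TMTpro 16plex LC-MS/MS of the supernatant, with channel sums equalised, gave values recorded as log-two fold change in thermal stability against solvent controls, from duplicates.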

crizotinib = compound: C[C@@H](Oc1cc(-c2cnn(C3CCNCC3)c2)cnc1N)c1c(Cl)ccc(F)c1Cl [crizotinib]
Summary of the method: as §1

[1] = compound: C[C@H](C1=CC=C(C=C1)C(=O)NC2=C3C=CNC3=NC=C2)N
Summary of the method: as §1

duvelisib = compound: C[C@H](Nc1ncnc2nc[nH]c12)c1cc2cccc(Cl)c2c(=O)n1-c1ccccc1 [duvelisib]
Summary of the method: as §1

gandotinib = compound: Cc1cc(Nc2cc(CN3CCOCC3)c3nc(C)c(Cc4ccc(Cl)cc4F)n3n2)n[nH]1 [gandotinib]
Summary of the method: as §1

doramapimod = compound: Cc1ccc(-n2nc(C(C)(C)C)cc2NC(=O)Nc2ccc(OCCN3CCOCC3)c3ccccc23)cc1 [doramapimod]
Summary of the method: as §1

[2] = compound: Cc1cccc(CC(=O)N2CCc3c2ccc(-c2cn(C)c4ncnc(N)c24)c3F)n1
Summary of the method: as §1

nilotinib = compound: Cc1cn(-c2cc(NC(=O)c3ccc(C)c(Nc4nccc(-c5cccnc5)n4)c3)cc(C(F)(F)F)c2)cn1 [nilotinib]
Summary of the method: as §1

[3] = compound: Cc1nc(Nc2n[nH]c3c2CN(C(=O)N[C@H](CN(C)C)c2ccccc2)C3(C)C)c2sccc2n1
Summary of the method: as §1

dasatinib = compound: Cc1nc(Nc2ncc(C(=O)Nc3c(C)cccc3Cl)s2)cc(N2CCN(CCO)CC2)n1 [dasatinib]
Summary of the method: as §1

[4] = compound: Cc1ncc(-c2ccnc(Nc3ccc(S(C)(=O)=O)cc3)n2)n1C(C)C
Summary of the method: as §1

[5] = compound: Cn1cc(-c2ccc3c(c2)CCN3C(=O)Cc2cccc(C(F)(F)F)c2)c2c(N)ncnc21
Summary of the method: as §1

quisinostat = compound: Cn1cc(CNCC2CCN(c3ncc(C(=O)NO)cn3)CC2)c2ccccc21 [quisinostat]
Summary of the method: as §1

tipifarnib = compound: Cn1cncc1[C@@](N)(c1ccc(Cl)cc1)c1ccc2c(c1)c(-c1cccc(Cl)c1)cc(=O)n2C [tipifarnib]
Summary of the method: as §1

[6] = compound: NC(=O)Nc1cc(-c2cccc(F)c2)sc1C(=O)N[C@H]1CCCNC1
Summary of the method: as §1

[7] = compound: NC(=O)c1cnc(N[C@@H]2CCCC[C@@H]2N)nc1Nc1cccc(-n2nccn2)c1
Summary of the method: as §1

tozasertib = compound: Cc1cc(Nc2cc(N3CCN(C)CC3)nc(Sc3ccc(NC(=O)C4CC4)cc3)n2)n[nH]1 [tozasertib]
Summary of the method: as §1

[8] = compound: NC1(c2ccc(-c3nc4ccn5c(=O)[nH]nc5c4cc3-c3ccccc3)cc2)CCC1
Summary of the method: as §1

pictilisib = compound: CS(=O)(=O)N1CCN(Cc2cc3nc(-c4cccc5[nH]ncc45)nc(N4CCOCC4)c3s2)CC1 [pictilisib]
Summary of the method: as §1

bafetinib = compound: Cc1ccc(NC(=O)c2ccc(CN3CC[C@H](N(C)C)C3)c(C(F)(F)F)c2)cc1Nc1nccc(-c2cncnc2)n1 [bafetinib]
Summary of the method: as §1

Q: Which results are given for TMEM237 isoform 3 (UniProt Q96Q45)?
A: log2 fold change (lapatinib): inactive: -0.131; log2 fold change (crizotinib): inactive: -0.103; log2 fold change [1]: inactive: -0.063; log2 fold change (duvelisib): inactive: 0.058; log2 fold change (gandotinib): inactive: 0.147; log2 fold change (doramapimod): inactive: -0.041; log2 fold change [2]: inactive: 0.12; log2 fold change (nilotinib): inactive: 0.02; log2 fold change [3]: inactive: -0.015; log2 fold change (dasatinib): inactive: -0.035; log2 fold change [4]: inactive: 0.07; log2 fold change [5]: inactive: -0.035; log2 fold change (quisinostat): inactive: 0.14; log2 fold change (tipifarnib): inactive: 0.282; log2 fold change [6]: inactive: -0.065; log2 fold change [7]: inactive: 0.05

Q: For TMEM268 isoform 3 (UniProt Q5VZI3), which log2 fold change (crizotinib) is on record?
A: inactive: -0.051

Q: And the log2 fold change [1]?
A: inactive: 0.181

Q: And the log2 fold change (duvelisib)?
A: inactive: 0.251

Q: And the log2 fold change (gandotinib)?
A: inactive: 0.02

Q: What about the log2 fold change (tozasertib) of the same target?
A: inactive: -0.075

Q: And the log2 fold change (doramapimod)?
A: inactive: -0.032

Q: And the log2 fold change [2]?
A: inactive: -0.188

Q: And the log2 fold change (dasatinib)?
A: inactive: 0.097

Q: What about the log2 fold change [5] of the same target?
A: inactive: -0.011

Q: And the log2 fold change (quisinostat)?
A: inactive: 0.058

Q: What about the log2 fold change [6] of the same target?
A: inactive: 0.02

Q: For TMEM98 (UniProt Q9Y2Y6), which log2 fold change [1] is on record?
A: inactive: 0.004

Q: What about the log2 fold change (gandotinib) of the same target?
A: inactive: -0.073

Q: And the log2 fold change [2]?
A: inactive: 0.051

Q: And the log2 fold change (nilotinib)?
A: inactive: 0.043

Q: And the log2 fold change [3]?
A: inactive: -0.216

Q: What about the log2 fold change [4] of the same target?
A: inactive: -0.228

Q: And the log2 fold change (tipifarnib)?
A: inactive: -0.022

Q: Which log2 fold change (crizotinib) does the source give for TMEM248 (UniProt Q9NWD8) here?
A: inactive: -0.107

Q: And the log2 fold change [1]?
A: inactive: 0.051

Q: What about the log2 fold change (duvelisib) of the same target?
A: inactive: 0.021

Q: And the log2 fold change (gandotinib)?
A: inactive: 0.045

Q: What about the log2 fold change (tozasertib) of the same target?
A: inactive: 0.002

Q: And the log2 fold change (doramapimod)?
A: inactive: 0.068

Q: What about the log2 fold change [2] of the same target?
A: inactive: 0.038

Q: And the log2 fold change (nilotinib)?
A: inactive: 0.107

Q: What about the log2 fold change [3] of the same target?
A: inactive: -0.052

Q: What about the log2 fold change (dasatinib) of the same target?
A: inactive: -0.053

Q: And the log2 fold change [4]?
A: inactive: 0.059

Q: And the log2 fold change [5]?
A: inactive: 0.048

Q: And the log2 fold change (quisinostat)?
A: inactive: 0.096

Q: And the log2 fold change (tipifarnib)?
A: inactive: 0.007

Q: What about the log2 fold change [6] of the same target?
A: inactive: -0.045

Q: What about the log2 fold change [8] of the same target?
A: inactive: 0.096

Q: Which results are given for TMEM246 (UniProt Q9BRR3)?
A: log2 fold change (pictilisib): inactive: 0.012; log2 fold change (bafetinib): inactive: -0.145; log2 fold change [8]: inactive: -0.051

Q: What does the source list for TPD52L2 isoform 3 (UniProt O43399)?
A: log2 fold change (pictilisib): inactive: -0.112; log2 fold change [1]: inactive: -0.155; log2 fold change (gandotinib): inactive: 0.377; log2 fold change (bafetinib): inactive: -0.102; log2 fold change [2]: inactive: -0.124; log2 fold change (nilotinib): inactive: 0.055; log2 fold change [3]: inactive: 0.035; log2 fold change [4]: inactive: 0.008; log2 fold change (tipifarnib): inactive: 0.134; log2 fold change [8]: inactive: 0.074

Q: Which results are given for TNNC1 (UniProt P63316)?
A: log2 fold change (pictilisib): inactive: -2.39; log2 fold change [1]: inactive: -1.58; log2 fold change (gandotinib): inactive: 0.228; log2 fold change (bafetinib): inactive: 0.267; log2 fold change [2]: inactive: 0.565

Q: TMTC4 isoform 3 (UniProt Q5T4D3) was tested. Which log2 fold change (duvelisib) did it give?
A: inactive: 0.009

Q: And the log2 fold change (tozasertib)?
A: inactive: -0.171

Q: What about the log2 fold change (dasatinib) of the same target?
A: inactive: -0.052

Q: And the log2 fold change [5]?
A: inactive: 0.177

Q: For TNFSF9 (UniProt P41273), which log2 fold change [1] is on record?
A: inactive: 0.138

Q: And the log2 fold change (gandotinib)?
A: inactive: 0.058

Q: What about the log2 fold change [2] of the same target?
A: inactive: 0.032

Q: With TPM3 isoform 3 (UniProt P06753) as the target, how does the log2 fold change (lapatinib) read?
A: inactive: -0.009

Q: What about the log2 fold change (crizotinib) of the same target?
A: inactive: 0.095

Q: And the log2 fold change [1]?
A: active: -0.411

Q: What about the log2 fold change (duvelisib) of the same target?
A: inactive: 0.011

Q: What about the log2 fold change (gandotinib) of the same target?
A: inactive: 0.176

Q: And the log2 fold change (tozasertib)?
A: inactive: 0.143

Q: And the log2 fold change (doramapimod)?
A: inactive: 0.027

Q: What about the log2 fold change [2] of the same target?
A: inactive: 0.202

Q: What about the log2 fold change (dasatinib) of the same target?
A: inactive: 0.05

Q: And the log2 fold change [5]?
A: inactive: 0.106

Q: And the log2 fold change (quisinostat)?
A: inactive: 0.112

Q: What about the log2 fold change [6] of the same target?
A: inactive: -0.09

Q: What about the log2 fold change [7] of the same target?
A: inactive: 0.001

Q: What about the log2 fold change [8] of the same target?
A: inactive: -0.035

Q: TMPO isoform 2 (UniProt P42167) was tested. Which log2 fold change (pictilisib) did it give?
A: inactive: 0.04

Q: And the log2 fold change (duvelisib)?
A: inactive: -0.041

Q: And the log2 fold change (tozasertib)?
A: inactive: -0.029

Q: And the log2 fold change (bafetinib)?
A: inactive: -0.026

Q: What about the log2 fold change (dasatinib) of the same target?
A: inactive: -0.042

Q: What about the log2 fold change [5] of the same target?
A: inactive: -0.072

Q: What does the source list for TMEM79 (UniProt Q9BSE2)?
A: log2 fold change (nilotinib): inactive: -0.146; log2 fold change [3]: inactive: 0.008; log2 fold change [4]: inactive: 0.134; log2 fold change (tipifarnib): inactive: -0.055

Q: What does the source list for TPRG1L (UniProt Q5T0D9)?
A: log2 fold change (lapatinib): inactive: 0; log2 fold change (crizotinib): inactive: -0.098; log2 fold change [1]: inactive: -0.019; log2 fold change (duvelisib): inactive: 0.079; log2 fold change (gandotinib): inactive: 0.077; log2 fold change (tozasertib): inactive: -0.062; log2 fold change (doramapimod): inactive: 0.047; log2 fold change [2]: inactive: 0.132; log2 fold change (nilotinib): inactive: 0.127; log2 fold change [3]: inactive: 0.096; log2 fold change (dasatinib): inactive: -0.06; log2 fold change [4]: inactive: -0.153; log2 fold change [5]: inactive: 0.055; log2 fold change (quisinostat): inactive: -0.104; log2 fold change (tipifarnib): inactive: -0.771; log2 fold change [6]: inactive: -0.017; log2 fold change [7]: inactive: 0.027; log2 fold change [8]: inactive: -0.036

Q: Which results are given for TOMM6 (UniProt Q96B49)?
A: log2 fold change (pictilisib): inactive: -0.1; log2 fold change [1]: inactive: 0.235; log2 fold change (duvelisib): inactive: -0.009; log2 fold change (gandotinib): inactive: -0.194; log2 fold change (tozasertib): inactive: 0.1; log2 fold change (bafetinib): inactive: 0.084; log2 fold change [2]: inactive: -0.116; log2 fold change (dasatinib): inactive: 0.19; log2 fold change [5]: inactive: 0.107; log2 fold change [8]: inactive: 0.061
